Differences between knockout arms are mostly noise.
Tested on: MDA-MB-231
Experiment: relative cell number vs DMSO control (72 h) (% of DMSO); higher = less growth inhibition (more cells)
Method: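 QMAP-Seq: a pool of 5 breast cancer cell lines (ZR-75-1, SKBR3, HCC-38, MDA-MB-231, BT-20), each carrying 12 doxycycline-inducible Cas9 sgRNA perturbations (11 knockouts plus non-targeting sgNT), was treated with compounds for 72 h at four 10-fold doses (10 nM-10 uM or 1 nM-1 uM range). Barcodes were amplified and sequenced, and cell number was interpolated from 293T spike-in standard curves. The result is expressed as % of the median of DMSO wells. Two biological replicates.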

Nc1ncn([C@H]2C[C@H](O)[C@@H](CO)O2)c(=O)n1 [Decitabine]
Settings | relative cell number
sgRNA knockout: sgATF3, 10 nM | 128
sgRNA knockout: sgATF3, 100 nM | 95.3
sgRNA knockout: sgATF3, 1000 nM | 41
sgRNA knockout: sgATF3, 10000 nM | 26.3
sgRNA knockout: sgATF4, 10 nM | 89.2
sgRNA knockout: sgATF4, 100 nM | 88.9
sgRNA knockout: sgATF4, 1000 nM | 47.2
sgRNA knockout: sgATF4, 10000 nM | 15.2
sgRNA knockout: sgATF6, 10 nM | 90.5
sgRNA knockout: sgATF6, 100 nM | 81.1
sgRNA knockout: sgATF6, 1000 nM | 51.2
sgRNA knockout: sgATF6, 10000 nM | 26.7
sgRNA knockout: sgATG7, 10 nM | 91.5
sgRNA knockout: sgATG7, 100 nM | 80
sgRNA knockout: sgATG7, 1000 nM | 38.6
sgRNA knockout: sgATG7, 10000 nM | 20.7
sgRNA knockout: sgERN1, 10 nM | 94.2
sgRNA knockout: sgERN1, 100 nM | 73.3
sgRNA knockout: sgERN1, 1000 nM | 44.8
sgRNA knockout: sgERN1, 10000 nM | 16.9
sgRNA knockout: sgHSF1, 10 nM | 81.7
sgRNA knockout: sgHSF1, 100 nM | 79.9
sgRNA knockout: sgHSF1, 1000 nM | 40.2
sgRNA knockout: sgHSF1, 10000 nM | 24.8
sgRNA knockout: sgHSF2, 10 nM | 116.6
sgRNA knockout: sgHSF2, 100 nM | 87.6
sgRNA knockout: sgHSF2, 1000 nM | 36.5
sgRNA knockout: sgHSF2, 10000 nM | 18.9
sgRNA knockout: sgKEAP1, 10 nM | 103
sgRNA knockout: sgKEAP1, 100 nM | 93.5
sgRNA knockout: sgKEAP1, 1000 nM | 51.8
sgRNA knockout: sgKEAP1, 10000 nM | 26.41
sgRNA knockout: sgNFE2L2, 10 nM | 104
sgRNA knockout: sgNFE2L2, 100 nM | 77.8
sgRNA knockout: sgNFE2L2, 1000 nM | 40.4
sgRNA knockout: sgNFE2L2, 10000 nM | 23.5
sgRNA knockout: sgSLC35F2, 10 nM | 96.9
sgRNA knockout: sgSLC35F2, 100 nM | 80.4
sgRNA knockout: sgSLC35F2, 1000 nM | 31
sgRNA knockout: sgSLC35F2, 10000 nM | 15.1
sgRNA knockout: sgXBP1, 10 nM | 99.6
sgRNA knockout: sgXBP1, 100 nM | 88.4
sgRNA knockout: sgXBP1, 1000 nM | 35.7
sgRNA knockout: sgXBP1, 10000 nM | 21.9

COc1cccc2c1C(=O)c1c(O)c3c(c(O)c1C2=O)C[C@@](O)(C(=O)CO)C[C@@H]3O[C@H]1C[C@H](N)[C@H](O)[C@H](C)O1 [Doxorubicin]
Settings | relative cell number
sgRNA knockout: sgATF3, 10 nM | 79.7
sgRNA knockout: sgATF3, 100 nM | 20.9
sgRNA knockout: sgATF3, 1000 nM | 23.4
sgRNA knockout: sgATF3, 10000 nM | 6.23
sgRNA knockout: sgATF4, 10 nM | 98.4
sgRNA knockout: sgATF4, 100 nM | 27.8
sgRNA knockout: sgATF4, 1000 nM | 22.8
sgRNA knockout: sgATF4, 10000 nM | 15.6
sgRNA knockout: sgATF6, 10 nM | 74.5
sgRNA knockout: sgATF6, 100 nM | 31
sgRNA knockout: sgATF6, 1000 nM | 20.3
sgRNA knockout: sgATF6, 10000 nM | 11.3
sgRNA knockout: sgATG7, 10 nM | 68.4
sgRNA knockout: sgATG7, 100 nM | 30.1
sgRNA knockout: sgATG7, 1000 nM | 16.7
sgRNA knockout: sgATG7, 10000 nM | 7.94
sgRNA knockout: sgERN1, 10 nM | 60.7
sgRNA knockout: sgERN1, 100 nM | 26.2
sgRNA knockout: sgERN1, 1000 nM | 14
sgRNA knockout: sgERN1, 10000 nM | 8.1
sgRNA knockout: sgHSF1, 10 nM | 67.1
sgRNA knockout: sgHSF1, 100 nM | 22.7
sgRNA knockout: sgHSF1, 1000 nM | 16.8
sgRNA knockout: sgHSF1, 10000 nM | 11.12
sgRNA knockout: sgHSF2, 10 nM | 95.4
sgRNA knockout: sgHSF2, 100 nM | 17.3
sgRNA knockout: sgHSF2, 1000 nM | 21
sgRNA knockout: sgHSF2, 10000 nM | 7.83
sgRNA knockout: sgKEAP1, 10 nM | 74.6
sgRNA knockout: sgKEAP1, 100 nM | 34.2
sgRNA knockout: sgKEAP1, 1000 nM | 20.4
sgRNA knockout: sgKEAP1, 10000 nM | 8.64
sgRNA knockout: sgNFE2L2, 10 nM | 66.4
sgRNA knockout: sgNFE2L2, 100 nM | 21.96
sgRNA knockout: sgNFE2L2, 1000 nM | 13.1
sgRNA knockout: sgNFE2L2, 10000 nM | 7.98
sgRNA knockout: sgSLC35F2, 10 nM | 63.1
sgRNA knockout: sgSLC35F2, 100 nM | 23.5
sgRNA knockout: sgSLC35F2, 1000 nM | 16.8
sgRNA knockout: sgSLC35F2, 10000 nM | 6.4
sgRNA knockout: sgXBP1, 10 nM | 72.6
sgRNA knockout: sgXBP1, 100 nM | 25.5
sgRNA knockout: sgXBP1, 1000 nM | 16.5
sgRNA knockout: sgXBP1, 10000 nM | 7.71

Nc1ccccc1NC(=O)c1ccc(CNC(=O)OCc2cccnc2)cc1 [Entinostat]
Settings | relative cell number
sgRNA knockout: sgATF3, 10 nM | 107
sgRNA knockout: sgATF3, 100 nM | 108
sgRNA knockout: sgATF3, 1000 nM | 37.2
sgRNA knockout: sgATF3, 10000 nM | 12.4
sgRNA knockout: sgATF4, 10 nM | 123
sgRNA knockout: sgATF4, 100 nM | 103
sgRNA knockout: sgATF4, 1000 nM | 25
sgRNA knockout: sgATF4, 10000 nM | 24.8
sgRNA knockout: sgATF6, 10 nM | 121
sgRNA knockout: sgATF6, 100 nM | 110.6
sgRNA knockout: sgATF6, 1000 nM | 23.9
sgRNA knockout: sgATF6, 10000 nM | 12.8
sgRNA knockout: sgATG7, 10 nM | 83.8
sgRNA knockout: sgATG7, 100 nM | 105
sgRNA knockout: sgATG7, 1000 nM | 31.2
sgRNA knockout: sgATG7, 10000 nM | 12.5
sgRNA knockout: sgERN1, 10 nM | 89.5
sgRNA knockout: sgERN1, 100 nM | 111
sgRNA knockout: sgERN1, 1000 nM | 29.1
sgRNA knockout: sgERN1, 10000 nM | 14.2
sgRNA knockout: sgHSF1, 10 nM | 94.6
sgRNA knockout: sgHSF1, 100 nM | 95.6
sgRNA knockout: sgHSF1, 1000 nM | 42.2
sgRNA knockout: sgHSF1, 10000 nM | 15.3
sgRNA knockout: sgHSF2, 10 nM | 110
sgRNA knockout: sgHSF2, 100 nM | 100
sgRNA knockout: sgHSF2, 1000 nM | 36.4
sgRNA knockout: sgHSF2, 10000 nM | 12.2
sgRNA knockout: sgKEAP1, 10 nM | 93
sgRNA knockout: sgKEAP1, 100 nM | 75.6
sgRNA knockout: sgKEAP1, 1000 nM | 28
sgRNA knockout: sgKEAP1, 10000 nM | 14.1
sgRNA knockout: sgNFE2L2, 10 nM | 95.5
sgRNA knockout: sgNFE2L2, 100 nM | 92.7
sgRNA knockout: sgNFE2L2, 1000 nM | 31.2
sgRNA knockout: sgNFE2L2, 10000 nM | 11.3
sgRNA knockout: sgSLC35F2, 10 nM | 117
sgRNA knockout: sgSLC35F2, 100 nM | 147
sgRNA knockout: sgSLC35F2, 1000 nM | 31.9
sgRNA knockout: sgSLC35F2, 10000 nM | 10.3
sgRNA knockout: sgXBP1, 10 nM | 122
sgRNA knockout: sgXBP1, 100 nM | 115
sgRNA knockout: sgXBP1, 1000 nM | 23.9
sgRNA knockout: sgXBP1, 10000 nM | 10.2

Source: the supplement of paper PMC7661543
